Measurements reported in ChEMBL document CHEMBL1268808, “Design and optimization of new piperidines as renin inhibitors” (Bioorg Med Chem Lett, 2010).

Experiment: in vivo
Conditions: rat

Compound: COCCCc1ccc(Cl)c(CN(C(=O)[C@H]2CNCC[C@@H]2c2ccc(OCCOc3c(Cl)cc(C)cc3Cl)cc2)C2CC2)c1
- bioavailability: 20%
